PubChem BioAssay AID276 (DTP/NCI, 2004)
The list does not hold the whole screen: it is rich in T/C values a quarter to a half above the control, in often repeated tests (any T/C) and in doses without a T/C. Further doses and runs are listed elsewhere. T/C is the treated group as % of the vehicle group. Some entries give survivors of the animals treated and no T/C: the source holds a T/C of zero for them, seemingly a mark for toxic or unscored doses. Some survivor counts are full or nearly so, which does not show that the dose was tolerated: survival well below the control is almost never listed, so the zero probably covers shortened survival too. Survivors were counted at the toxicity check, usually on the fifth day, unless a day is given; later deaths do not show. Schedule codes are those of the source, read here as Q, the interval in days (D) or hours (H), X, the number of doses. Some doses were run more than once; the values are given in rising order. Where survival is the endpoint, this PubChem deposit counts one and a half times the control or more as active, and values a quarter to a half above the control carry no call in these data; other NCI protocols may use other cut-offs. Some T/C values carry the count of animals alive at the toxicity check (mostly the fifth day); where none is given, no animal had died by that day.

Test system: B6C3F1 mice, Lewis lung carcinoma iv, survival T/C
Test: NCI In Vivo Anticancer Drug Screen. Data for tumor model Lewis Lung Carcinoma (intravenous) in B6C3F1 mice
Conditions: T/C endpoint: median survival time, higher T/C = longer survival
Outline: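 Transplantable tumor in mice; compound treated vs vehicle controls; read-out survival; value = treated/control (T/C).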

[1] = dose: 100.0 mg/kg/injection, schedule: Q01DX009 (ip), vehicle: distilled water + Tween-80 + alcohol
[2] = dose: 200.0 mg/kg/injection, schedule: Q01DX009 (ip), vehicle: saline
[3] = dose: 400.0 mg/kg/injection, schedule: Q01DX009 (ip), vehicle: saline
[4] = dose: 200.0 mg/kg/injection, schedule: Q01DX009 (ip), vehicle: saline with Tween-80
[5] = dose: 400.0 mg/kg/injection, schedule: Q01DX009 (ip), vehicle: saline with Tween-80

## CCOc1cc2c(cc1C(C)c1ccc(OC)cc1)OCO2 (stereo not drawn)
dose: 100.0 mg/kg/injection, schedule: Q01DX009 (ip), vehicle: DMSO
  survivor count: 0 of 10
[1]
  survivor count: 5 of 6
dose: 100.0 mg/kg/injection, schedule: Q01DX009 (ip), vehicle: distilled water + alcohol
  survivor count: 9 of 10
dose: 200.0 mg/kg/injection, schedule: Q01DX009 (ip), vehicle: DMSO
  survivor count: 0 of 10
dose: 200.0 mg/kg/injection, schedule: Q01DX009 (ip), vehicle: distilled water + alcohol
  survivor count: 0 of 10
dose: 400.0 mg/kg/injection, schedule: Q01DX009 (ip), vehicle: DMSO
  survivor count: 0 of 10
dose: 400.0 mg/kg/injection, schedule: Q01DX009 (ip), vehicle: distilled water + alcohol
  survivor count: 0 of 10
dose: 800.0 mg/kg/injection, schedule: Q01DX009 (ip), vehicle: DMSO
  survivor count: 0 of 10
dose: 800.0 mg/kg/injection, schedule: Q01DX009 (ip), vehicle: distilled water + alcohol
  survivor count: 0 of 10

## N=C1CCCS1
dose: 100.0 mg/kg/injection, schedule: Q01DX009 (ip), vehicle: saline
  T/C: 130 % of control
[2]
  survivor count: 0 of 10
[3]
  survivor count: 0 of 10

## c1cc2n(n1)CCN2
[2]
  T/C: 135 % of control
[3]
  survivor count: 8 of 10

## Cc1nnc2ncccn12
[2]
  T/C: 137 % of control

## CC(C)(C)c1ccc(CN2CCN(C(c3ccccc3)c3ccc(Cl)cc3)CC2)cc1 (stereo not drawn)
dose: 128.0 mg/kg/injection, schedule: Q01DX009 (ip), vehicle: Klucel (hydroxypropylcellulose) (HPC)
  survivor count: 8 of 10
dose: 256.0 mg/kg/injection, schedule: Q01DX009 (ip), vehicle: Klucel (hydroxypropylcellulose) (HPC)
  survivor count: 2 of 9

## S=C(Nc1ccc(Cl)c(Cl)c1)N1c2ccccc2-n2cccc2C1c1cccnc1 (stereo not drawn)
dose: 400.0 mg/kg/injection, schedule: Q01DX009 (ip), vehicle: Klucel (hydroxypropylcellulose) (HPC)
  survivor count: 1 of 10

## COc1ccc(CC2C(=O)NC(C)C(=O)N(C)C3Cc4ccc(cc4)Oc4cc(ccc4O)CC(C(=O)NC(C)C(=O)NC(C)C(=O)N2C)N(C)C3=O)cc1 (stereo not drawn)
dose: 4.0 mg/kg/injection, schedule: Q01DX009 (ip), vehicle: saline with Tween-80
  survivor count: 10 of 10

## COc1cccc2c1C(=N)c1c(O)c3c(c(O)c1C2=O)C[C@@](O)(C(C)=O)C[C@@H]3OC1CC(N)C(O)C(C)O1 (stereo partly drawn)
dose: 8.0 mg/kg/injection, schedule: Q01DX009 (ip), vehicle: saline
  survivor count: 10 of 10
dose: 16.0 mg/kg/injection, schedule: Q01DX009 (ip), vehicle: saline
  survivor count: 10 of 10

## COc1nc(C(Cl)(Cl)Cl)c(Cl)c(OC)c1Cl
dose: 200.0 mg/kg/injection, schedule: Q01DX008 (ip), vehicle: Klucel (hydroxypropylcellulose) (HPC)
  survivor count: 10 of 10
dose: 400.0 mg/kg/injection, schedule: Q01DX008 (ip), vehicle: Klucel (hydroxypropylcellulose) (HPC)
  survivor count: 5 of 10

## CCCCCCCCCCCCCC#CC(=O)O
dose: 100.0 mg/kg/injection, schedule: Q01DX009 (ip), vehicle: saline with Tween-80
  survivor count: 7 of 10

## O=[N+]([O-])c1ccc(Sc2ccncn2)c([N+](=O)[O-])c1
[4]
  survivor count: 1 of 10

## Nc1nncs1
dose: 27.0 mg/kg/injection, schedule: Q01DX009 (ip), vehicle: Klucel (hydroxypropylcellulose) (HPC)
  T/C: 131 % of control
dose: 48.0 mg/kg/injection, schedule: Q01DX009 (ip), vehicle: Klucel (hydroxypropylcellulose) (HPC)
  survivor count: 10 of 10

## Cc1ccc(S(=O)(=O)OCOS(=O)(=O)c2ccc(C)cc2)cc1
dose: 800.0 mg/kg/injection, schedule: Q01DX009 (ip), vehicle: Klucel (hydroxypropylcellulose) (HPC)
  survivor count: 10 of 10

## O=NN(CCF)C(=O)NC1CCCCC1
dose: 6.0 mg/kg/injection, schedule: Q01DX009 (ip), vehicle: Klucel (hydroxypropylcellulose) (HPC)
  T/C: 128 % of control
dose: 6.25 mg/kg/injection, schedule: Q01DX009 (ip), vehicle: Klucel (hydroxypropylcellulose) (HPC)
  T/C: 126 % of control [8 of 9 alive]
dose: 25.0 mg/kg/injection, schedule: Q01DX009 (ip), vehicle: Klucel (hydroxypropylcellulose) (HPC)
  T/C: 141 % of control
dose: 40.0 mg/kg/injection, schedule: Q01DX009 (ip), vehicle: saline with Tween-80
  survivor count: 1 of 10 on day 9
dose: 50.0 mg/kg/injection, schedule: Q01DX009 (ip), vehicle: Klucel (hydroxypropylcellulose) (HPC)
  survivor count: 3 of 10 and 7 of 10
dose: 100.0 mg/kg/injection, schedule: Q01DX009 (ip), vehicle: Klucel (hydroxypropylcellulose) (HPC)
  survivor count: 0 of 10
dose: 200.0 mg/kg/injection, schedule: Q01DX009 (ip), vehicle: Klucel (hydroxypropylcellulose) (HPC)
  survivor count: 0 of 10

## O=C(Nc1cccc(Cl)c1)ON1C(=O)C2C(C1=O)C1(Cl)C(Cl)C(Cl)C2(Cl)C1(Cl)Cl (stereo not drawn)
[4]
  survivor count: 6 of 10
[5]
  survivor count: 6 of 10

## C=CCOCC1CO1 (stereo not drawn)
[3]
  survivor count: 1 of 10

## c1cc(-c2cc3ccc(C4=NCCN4)cc3[nH]2)ccc1C1=NCCN1
dose: 50.0 mg/kg/injection, schedule: Q01DX009 (ip), vehicle: suspension in saline
  survivor count: 0 of 10
dose: 100.0 mg/kg/injection, schedule: Q01DX009 (ip), vehicle: suspension in saline
  survivor count: 0 of 10

## O=[n+]1c2ccccc2n([O-])c2ccccc21.[Cl][Ni][Cl]
dose: 50.0 mg/kg/injection, schedule: Q01DX009 (ip), vehicle: saline with Tween-80
  survivor count: 7 of 10

## C(=N/NC1=NCCN1)/c1c2ccccc2c(/C=N\NC2=NCCN2)c2ccccc12
dose: 6.25 mg/kg/injection, schedule: Q01DX009 (ip), vehicle: saline
  survivor count: 9 of 10
dose: 50.0 mg/kg/injection, schedule: Q01DX009 (ip), vehicle: saline
  survivor count: 10 of 10

## COc1cc([C@@H]2c3cc4c(cc3[C@@H](OC3OC5COC(C)OC5C(O)C3O)[C@H]3COC(=O)[C@H]23)OCO4)cc(OC)c1O (stereo partly drawn)
dose: 4.0 mg/kg/injection, schedule: Q01DX009 (ip), vehicle: suspension in saline
  T/C: 125 % of control
dose: 8.0 mg/kg/injection, schedule: Q01DX009 (ip), vehicle: Klucel (hydroxypropylcellulose) (HPC)
  T/C: 132 % of control
dose: 8.0 mg/kg/injection, schedule: Q01DX009 (ip), vehicle: suspension in saline
  T/C: 147 % of control
dose: 32.0 mg/kg/injection, schedule: Q01DX009 (ip), vehicle: suspension in saline
  survivor count: 10 of 10

## Cc1cc(NCCCCCCNc2cc(C)nc3cc(N(C)C)ccc23)c2ccc(N(C)C)cc2n1
dose: 50.0 mg/kg/injection, schedule: Q01DX009 (ip), vehicle: distilled water + Tween-80 + alcohol
  survivor count: 9 of 10
[1]
  survivor count: 0 of 10

## N=C(N)Sc1cc(O)ccc1O
[3]
  survivor count: 0 of 10

## CC1=C(C)C(=O)O[C@@H]([C@](C)(O)[C@]2(O)CC[C@@]3(O)[C@@H]4C[C@H]5O[C@]56[C@@H](O)C=CC(=O)[C@]6(C)[C@H]4CC[C@]23C)C1
dose: 32.0 mg/kg/injection, schedule: Q01DX009 (ip), vehicle: saline
  survivor count: 9 of 10

## O=C(Nc1cc(Cl)ccc1C(=O)O)c1cccc(C[n+]2ccccc2)c1
[5]
  survivor count: 7 of 8
dose: 800.0 mg/kg/injection, schedule: Q01DX009 (ip), vehicle: saline with Tween-80
  survivor count: 2 of 8
